From patent US20090215877A1
No constants are given. Whether binding was seen depends on the method and setting. Binding seen in cells or lysates may run through a third protein. Some results given as binding are weak or reduced against the parent protein; the word gives no strength.

Sequences of proteins named here, by UniProt entry; tags and fusion partners are left off. A change or cut given only in a name is not applied to a line headed by its entry. Residues count along the entry.
UniProt P15087, residues 43-476: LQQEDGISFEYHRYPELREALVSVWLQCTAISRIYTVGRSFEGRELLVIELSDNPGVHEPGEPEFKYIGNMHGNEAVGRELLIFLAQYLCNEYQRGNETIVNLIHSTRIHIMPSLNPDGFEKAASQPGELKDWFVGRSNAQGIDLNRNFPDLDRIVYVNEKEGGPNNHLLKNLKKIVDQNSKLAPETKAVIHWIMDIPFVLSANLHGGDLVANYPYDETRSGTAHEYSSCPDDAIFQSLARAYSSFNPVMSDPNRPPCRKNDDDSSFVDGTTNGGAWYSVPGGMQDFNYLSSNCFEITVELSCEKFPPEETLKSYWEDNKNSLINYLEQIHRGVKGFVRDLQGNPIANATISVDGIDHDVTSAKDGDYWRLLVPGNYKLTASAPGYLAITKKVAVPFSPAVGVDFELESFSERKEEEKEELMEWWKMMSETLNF
UniProt O54960: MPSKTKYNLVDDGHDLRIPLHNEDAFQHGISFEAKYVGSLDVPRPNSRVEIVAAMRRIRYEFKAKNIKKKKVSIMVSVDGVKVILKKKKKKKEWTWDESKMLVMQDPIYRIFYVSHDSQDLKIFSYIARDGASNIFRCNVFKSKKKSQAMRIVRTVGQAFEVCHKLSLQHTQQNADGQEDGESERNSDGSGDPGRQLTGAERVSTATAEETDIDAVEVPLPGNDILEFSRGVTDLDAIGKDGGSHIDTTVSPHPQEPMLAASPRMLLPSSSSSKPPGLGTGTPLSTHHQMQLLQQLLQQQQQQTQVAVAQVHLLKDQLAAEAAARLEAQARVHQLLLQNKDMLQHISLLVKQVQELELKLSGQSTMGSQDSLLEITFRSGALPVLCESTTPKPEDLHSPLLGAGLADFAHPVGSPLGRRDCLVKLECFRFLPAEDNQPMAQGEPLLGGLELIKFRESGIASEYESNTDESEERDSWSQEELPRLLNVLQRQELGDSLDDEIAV
UniProt O75052: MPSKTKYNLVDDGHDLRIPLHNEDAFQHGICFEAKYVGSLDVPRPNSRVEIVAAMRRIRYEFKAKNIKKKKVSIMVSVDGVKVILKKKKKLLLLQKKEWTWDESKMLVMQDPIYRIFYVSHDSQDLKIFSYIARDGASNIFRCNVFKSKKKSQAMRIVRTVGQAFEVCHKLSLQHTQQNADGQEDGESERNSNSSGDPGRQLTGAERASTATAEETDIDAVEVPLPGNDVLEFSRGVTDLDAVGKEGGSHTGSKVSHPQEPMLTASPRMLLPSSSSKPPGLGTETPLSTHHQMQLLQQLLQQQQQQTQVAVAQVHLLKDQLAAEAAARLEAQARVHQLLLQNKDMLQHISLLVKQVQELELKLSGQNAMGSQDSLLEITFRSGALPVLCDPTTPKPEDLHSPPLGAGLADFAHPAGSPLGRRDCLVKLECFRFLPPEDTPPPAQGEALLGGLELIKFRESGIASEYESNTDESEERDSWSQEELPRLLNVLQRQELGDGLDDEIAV

Tests used:
[1] = molecular target: carboxypeptidase E (CPE) from rat brain lysate (rat) (UniProt P15087); assay: co-immunoprecipitation and GST pull-down from rat brain lysate (FIG. 12 legend)
[2] = molecular target: hippocalcin-like 1 from rat brain extract (rat) (UniProt P62749); assay: co-immunoprecipitation from rat brain extract, Western blot (FIG. 18 legend)
[3] = molecular target: carboxypeptidase E (CPE) from rat brain lysate (rat) (UniProt P15087); assay: co-immunoprecipitation and GST pull-down (FIG. 12)
[4] = molecular target: hippocalcin-like 1 from rat brain extract (rat) (UniProt P62749); assay: co-immunoprecipitation from rat brain extract; assay for direct binding not described
[5] = molecular target: carboxypeptidase E (CPE) from rat brain lysate (rat) (UniProt P15087); assay: co-immunoprecipitation from rat brain lysate with anti-NOS1AP, blot for CPE
[6] = molecular target: carboxypeptidase E (CPE) from rat brain lysate (rat) (UniProt P15087); assay: GST pull-down from rat brain lysate, blot for CPE

Measured: binding

NOS1AP from rat brain lysate (endogenous) (from UniProt O54960 1-503)
not listed: [6]
binds: all other assays above

fusion protein containing GST and NOS1AP-186-312 (from UniProt O75052 186-312)
binds: [6]
